Results from patent publication US20020198143A1 (Human Genome Sciences, published 2002).
These are yes or no findings as the source states them, for the method shown. Some binding calls cover weakened binding; strength is not graded here.

Target: T1, B7-H2 expressed on transfected 293 cells (UniProt O75144)
T1 sequence (looked up): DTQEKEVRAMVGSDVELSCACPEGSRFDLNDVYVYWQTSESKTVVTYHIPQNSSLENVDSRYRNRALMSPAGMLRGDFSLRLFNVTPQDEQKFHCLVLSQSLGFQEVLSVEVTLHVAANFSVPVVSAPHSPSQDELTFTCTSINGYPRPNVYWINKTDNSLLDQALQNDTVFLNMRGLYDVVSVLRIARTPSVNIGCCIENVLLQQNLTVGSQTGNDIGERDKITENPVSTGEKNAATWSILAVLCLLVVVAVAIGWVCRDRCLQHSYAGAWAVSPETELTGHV
Assay: FACS on 293 cells transfected with B7-H2

- binding: binds
B1: ICOSIg (Fc fusion, UniProt Q9Y6W8 21-140, looked up)
chain: EINGSANYEMFIFHNGGVQILCKYPDIVQQFKMQLLKGGQILCDLTKTKGSGNTVSIKSLKFCHSQLSNNSVSFFLYNLDHSHANYYFCNLSIFDPPPFKVTLTGGYLHIYESQLCCQLK
notes: extracellular domain; not shown: Fc constant region of mouse IgG2a, inferred from 'similar methods'
